Test results reported in patent US20200339700A1 (Bristol-Myers Squibb, published 2020).
Substitutions are numbered along the chain they refer to. These are yes or no findings as the source states them, for the method shown. Binding can be weak; no strength is given.

B1: 12D6-24-L4H4 (antibody, human IgG1, V domains shown)
VH: QVQLVQSGAEVKKPGASVKVSCKASGYTFTGYNMNWVRQAPGQGLEWMGNIDPYYGNTNYNQKFKGRTTLTADTSTSTAYMELSSLRSDDTAVYYCARLGLQLYALDYWGQGTLVTVSS
VL: DIVLTQSPDSLAVSLGERATINCRASQSLVHSNANTYLHWYQQKPGQPPKLLIYKLTNRFFGVPDRFSGSGSGTDFTLTISSLQAEDVAVYYCQQSIHVPWTFGQGTKLEIK
B2: 12D6-24-L4H1 (antibody, human IgG1, V domains shown)
VH: B1 VH with T68V, L70M, A72T, S84R, L114T
VL: B1 VL
B3: 12D6-24 variant L1H4 (antibody, human IgG1, V domains shown)
VH: B1 VH
VL: DIVMTQTPLSLPVTPGEPASISCRSSQSLVHSNANTYLHWYLQKPGQSPQLLIYKLTNRFFGVPDRFSGSGSGTDFTLKISRVEAEDVGVYYCSQSIHVPWTFGGGTKVEIK
B4: 12D6-24 variant L4H2 (antibody, human IgG1, V domains shown)
VH: B1 VH with A16S, R67K, T74K
VL: B1 VL

Target: human CD40 (human)
Assay: ELISA

binding, binds:
B1
B2
B3
B4

Target: human CD40 (human)
Assay: ELISA (summary statement)

binding, binds:
B1
B2
